Measured values from patent publication US20210040189A1.
These are yes or no findings as the source states them, for the method shown. In cells and extracts the contact can be indirect. Some results given as binding are weak or reduced against the parent protein; the word gives no strength. Sequences can lack the tags named with a protein.

Protein sequences, listed by entry. Tags and fused reporters are not part of them. Residues count along the entry.
UniProt O88572, residues 20-1370: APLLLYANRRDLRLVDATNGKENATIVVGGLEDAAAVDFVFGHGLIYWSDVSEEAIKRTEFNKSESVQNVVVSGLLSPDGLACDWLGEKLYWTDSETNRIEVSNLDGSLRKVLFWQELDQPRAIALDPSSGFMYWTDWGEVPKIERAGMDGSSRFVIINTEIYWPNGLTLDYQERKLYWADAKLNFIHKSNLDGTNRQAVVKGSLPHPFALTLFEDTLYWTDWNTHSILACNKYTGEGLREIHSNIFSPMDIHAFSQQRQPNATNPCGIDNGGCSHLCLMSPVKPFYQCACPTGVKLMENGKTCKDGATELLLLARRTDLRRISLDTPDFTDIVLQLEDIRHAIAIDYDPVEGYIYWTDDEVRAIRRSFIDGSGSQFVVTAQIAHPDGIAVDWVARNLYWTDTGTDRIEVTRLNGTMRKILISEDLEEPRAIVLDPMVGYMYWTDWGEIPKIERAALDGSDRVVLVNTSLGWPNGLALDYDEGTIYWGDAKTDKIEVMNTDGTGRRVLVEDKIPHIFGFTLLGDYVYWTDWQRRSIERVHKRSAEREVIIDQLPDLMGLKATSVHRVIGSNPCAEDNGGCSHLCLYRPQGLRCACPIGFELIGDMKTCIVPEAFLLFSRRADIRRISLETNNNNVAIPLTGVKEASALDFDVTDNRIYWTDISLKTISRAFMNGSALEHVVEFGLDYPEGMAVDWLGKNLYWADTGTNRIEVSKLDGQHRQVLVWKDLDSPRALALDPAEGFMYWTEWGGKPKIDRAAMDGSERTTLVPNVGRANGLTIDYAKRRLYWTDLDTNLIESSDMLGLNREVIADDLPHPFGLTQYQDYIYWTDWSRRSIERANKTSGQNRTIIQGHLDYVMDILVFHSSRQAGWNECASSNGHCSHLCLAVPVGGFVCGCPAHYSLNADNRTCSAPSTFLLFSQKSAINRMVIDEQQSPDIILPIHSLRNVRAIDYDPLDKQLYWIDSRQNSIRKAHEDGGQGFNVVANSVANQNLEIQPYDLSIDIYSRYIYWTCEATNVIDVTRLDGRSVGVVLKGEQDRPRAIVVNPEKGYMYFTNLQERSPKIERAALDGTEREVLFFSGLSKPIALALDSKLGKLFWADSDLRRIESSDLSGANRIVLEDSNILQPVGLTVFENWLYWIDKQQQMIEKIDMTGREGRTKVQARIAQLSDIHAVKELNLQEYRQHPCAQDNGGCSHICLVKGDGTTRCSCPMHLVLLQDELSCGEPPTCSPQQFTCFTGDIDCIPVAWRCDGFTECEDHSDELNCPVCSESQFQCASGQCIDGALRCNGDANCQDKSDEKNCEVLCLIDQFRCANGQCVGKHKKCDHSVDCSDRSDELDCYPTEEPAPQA

Legend:
[1] = biological target: T1, recombinant human kremen2-his (human) (UniProt Q8NCW0); assay: co-immunoprecipitation with anti-His antibody, Western blot with anti-Flag antibody; receptor is kremen2-his by paragraph 311, paragraph 313 and paragraph 314, although the lane lists in paragraph 31 and paragraph 313 say LRP6-His
T1 sequence (looked up): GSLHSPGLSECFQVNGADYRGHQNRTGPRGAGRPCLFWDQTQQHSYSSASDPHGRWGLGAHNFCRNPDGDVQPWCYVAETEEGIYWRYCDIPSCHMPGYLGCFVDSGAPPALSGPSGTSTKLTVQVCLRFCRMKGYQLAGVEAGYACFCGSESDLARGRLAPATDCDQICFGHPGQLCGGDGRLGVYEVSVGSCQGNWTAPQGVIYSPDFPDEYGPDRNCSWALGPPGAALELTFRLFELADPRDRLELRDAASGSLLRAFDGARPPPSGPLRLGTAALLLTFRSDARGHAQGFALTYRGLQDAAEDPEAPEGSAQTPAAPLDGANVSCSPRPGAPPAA

LRP6-His (mouse) = LRP6-His (mouse) (UniProt O88572); assay: co-immunoprecipitation with anti-His antibody, Western blot with anti-Flag antibody

binding [1]: binds | binding (LRP6-His (mouse)): binds
B1: Flag tagged rhDKK1 (ligand, not shown: small tags and cut ends)
chain: TLNSVLNSNAIKNLPPPLGGAAGHPGSAVSAAPGILYPGGNKYQTIDNYQPYPCAEDEECGTDEYCASPTRGGDAGVQICLACRKRRKRCMRHAMCCPGNYCKNGICVSSDQNHFRGEIEETITESFGNDHSTLDGYSRRTTLSSKMYHTKGQEGSVCLRSSDCASGLCCDRHFWSKICKPVLKEGQVCTKHRRKGSHGLEIFQRCYCGEGLSCRIQKDHHQASNSSRLHTCQRH
